# Source: the supplement of paper PMC8728848
# This is one part of the list.
# B1: Langerin K299A/K313A (Homo sapiens), Q9UJ71 (protein)
# chain: STLNAQIPELKSDLEKASALNTKIRALQGSLENMSKLLKRQNDILQVVSQGWKYFKGNFYYFSLIPKTWYSAEQFCVSRNSHLTSVTSESEQEFLYKTAGGLIYWIGLTKAGMEGDWSWVDDTPFNKVQSARFWIPGEPNNAGNNEHCGNIAAPSLQAWNDAPCDATFLFICKRPYVPSEP
# Tests used:
# Experiment in all cases: glycan array binding signal (z-score within array); higher = stronger binding
# Conditions in all cases: glycan notation: IUPAC condensed, linker removed
# [1] = target: Fuc(a1-2)[Gal(a1-3)]Gal(b1-4)GlcNAc(b1-2)Man(a1-3)[Fuc(a1-2)[Gal(a1-3)]Gal(b1-4)GlcNAc(b1-2)Man(a1-6)]Man(b1-4)GlcNAc(b1-4)GlcNAc
# In short: (§1)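 Glycan array data were curated from 3228 arrays in the Consortium for Functional Glycomics database and kept only where the protein sequence was available. Glycan names were converted to IUPAC-condensed notation, and columns mapping to the same glycan were averaged. The binding signal is a within-array Z-score, averaged across arrays of the same protein sequence at different concentrations or buffers and across linkers. Negative Z-scores can be read as non-binding.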
# [2] = target: Fuc(a1-2)[Gal(a1-3)]Gal(b1-4)GlcNAc(b1-2)Man(a1-3)[Fuc(a1-2)[Gal(a1-3)]Gal(b1-4)GlcNAc(b1-2)Man(a1-6)]Man(b1-4)GlcNAc(b1-4)[Fuc(a1-6)]GlcNAc
# In short: as §1
# [3] = target: Fuc(a1-2)[Gal(a1-3)]Gal(b1-4)GlcNAc(b1-3)GalNAc
# In short: as §1
# [4] = target: Fuc(a1-2)[Gal(a1-3)]Gal(b1-4)GlcNAc(b1-6)GalNAc
# In short: as §1
# [5] = target: Fuc(a1-2)[Gal(a1-3)]Gal(b1-4)[Fuc(a1-3)]Glc
# In short: as §1
# [6] = target: Fuc(a1-2)[Gal(a1-3)]Gal(b1-4)[Fuc(a1-3)]GlcNAc
# In short: as §1
# [7] = target: Fuc(a1-2)[Gal(a1-3)]Gal(b1-4)[Fuc(a1-3)]GlcNAc(b1-3)GalNAc
# In short: as §1
# [8] = target: Fuc(a1-2)[Gal(a1-4)]Gal(b1-4)GlcNAc
# In short: as §1
# [9] = target: Fuc(a1-2)[GalNAc(a1-3)]Gal
# In short: as §1
# [10] = target: Fuc(a1-2)[GalNAc(a1-3)]Gal(b1-3)GalNAc(a1-3)[Fuc(a1-2)]Gal(b1-4)GlcNAc
# In short: as §1
# [11] = target: Fuc(a1-2)[GalNAc(a1-3)]Gal(b1-3)GalNAc(b1-3)Gal(a1-4)Gal(b1-4)Glc
# In short: as §1
# [12] = target: Fuc(a1-2)[GalNAc(a1-3)]Gal(b1-3)GlcNAc
# In short: as §1
# [13] = target: Fuc(a1-2)[GalNAc(a1-3)]Gal(b1-3)GlcNAc(b1-2)Man(a1-3)[Fuc(a1-2)[GalNAc(a1-3)]Gal(b1-3)GlcNAc(b1-2)Man(a1-6)]Man(b1-4)GlcNAc(b1-4)GlcNAc
# In short: as §1
# [14] = target: Fuc(a1-2)[GalNAc(a1-3)]Gal(b1-3)GlcNAc(b1-2)Man(a1-3)[Fuc(a1-2)[GalNAc(a1-3)]Gal(b1-3)GlcNAc(b1-2)Man(a1-6)]Man(b1-4)GlcNAc(b1-4)[Fuc(a1-6)]GlcNAc
# In short: as §1
# [15] = target: Fuc(a1-2)[GalNAc(a1-3)]Gal(b1-3)GlcNAc(b1-3)GalNAc
# In short: as §1
# [16] = target: Fuc(a1-2)[GalNAc(a1-3)]Gal(b1-3)GlcNAc(b1-6)GalNAc
# In short: as §1
# [17] = target: Fuc(a1-2)[GalNAc(a1-3)]Gal(b1-4)Glc
# In short: as §1
# [18] = target: Fuc(a1-2)[GalNAc(a1-3)]Gal(b1-4)GlcNAc
# In short: as §1
# [19] = target: Fuc(a1-2)[GalNAc(a1-3)]Gal(b1-4)GlcNAc(b1-2)Man
# In short: as §1
# [20] = target: Fuc(a1-2)[GalNAc(a1-3)]Gal(b1-4)GlcNAc(b1-2)Man(a1-3)[Fuc(a1-2)[GalNAc(a1-3)]Gal(b1-4)GlcNAc(b1-2)Man(a1-6)]Man(b1-4)GlcNAc(b1-4)GlcNAc
# In short: as §1
# [21] = target: Fuc(a1-2)[GalNAc(a1-3)]Gal(b1-4)GlcNAc(b1-2)Man(a1-3)[Fuc(a1-2)[GalNAc(a1-3)]Gal(b1-4)GlcNAc(b1-2)Man(a1-6)]Man(b1-4)GlcNAc(b1-4)[Fuc(a1-6)]GlcNAc
# In short: as §1
# [22] = target: Fuc(a1-2)[GalNAc(a1-3)]Gal(b1-4)GlcNAc(b1-3)Gal(b1-4)GlcNAc
# In short: as §1
# [23] = target: Fuc(a1-2)[GalNAc(a1-3)]Gal(b1-4)GlcNAc(b1-3)Gal(b1-4)GlcNAc(b1-3)Gal(b1-4)GlcNAc
# In short: as §1
# [24] = target: Fuc(a1-2)[GalNAc(a1-3)]Gal(b1-4)GlcNAc(b1-3)GalNAc
# In short: as §1
# [25] = target: Fuc(a1-2)[GalNAc(a1-3)]Gal(b1-4)GlcNAc(b1-3)[Fuc(a1-2)[GalNAc(a1-3)]Gal(b1-4)GlcNAc(b1-6)]GalNAc
# In short: as §1
# [26] = target: Fuc(a1-2)[GalNAc(a1-3)]Gal(b1-4)GlcNAc(b1-6)GalNAc
# In short: as §1
# [27] = target: Fuc(a1-2)[GalNAc(a1-3)]Gal(b1-4)[Fuc(a1-3)]GlcNAc
# In short: as §1
# [28] = target: Fuc(a1-2)[GalNAc(a1-3)]Gal(b1-4)[Fuc(a1-3)]GlcNAc(b1-3)GalNAc
# In short: as §1
# [29] = target: Fuc(a1-2)[GalNAc(a1-4)]Gal(b1-4)GlcNAc
# In short: as §1
# [30] = target: Fuc(a1-2)[GalNAc(b1-3)]Gal
# In short: as §1
# Fuc(a1-3)GlcNAc = target: Fuc(a1-3)GlcNAc
# In short: as §1
# [31] = target: Fuc(a1-3)[Gal(b1-4)]Glc6S
# In short: as §1
# [32] = target: Fuc(a1-3)[Gal(b1-4)]GlcNAc
# In short: as §1
# [33] = target: Fuc(a1-3)[Gal(b1-4)]GlcNAc(b1-2)Man
# In short: as §1
# [34] = target: Fuc(a1-3)[Gal(b1-4)]GlcNAc(b1-2)Man(a1-3)[Fuc(a1-3)[Gal(b1-4)]GlcNAc(b1-2)Man(a1-6)]Man(b1-4)GlcNAc(b1-4)GlcNAc
# In short: as §1
# [35] = target: Fuc(a1-3)[Gal(b1-4)]GlcNAc(b1-2)Man(a1-3)[Fuc(a1-3)[Gal(b1-4)]GlcNAc(b1-2)Man(a1-6)]Man(b1-4)GlcNAc(b1-4)[Fuc(a1-6)]GlcNAc
# In short: as §1
# [36] = target: Fuc(a1-3)[Gal(b1-4)]GlcNAc(b1-3)Gal(b1-3)[Fuc(a1-4)]GlcNAc
# In short: as §1
# [37] = target: Fuc(a1-3)[Gal(b1-4)]GlcNAc(b1-3)Gal(b1-4)[Fuc(a1-3)]GlcNAc
# In short: as §1
# [38] = target: Fuc(a1-3)[Gal(b1-4)]GlcNAc(b1-3)Gal(b1-4)[Fuc(a1-3)]GlcNAc(b1-3)Gal(b1-4)[Fuc(a1-3)]GlcNAc
# In short: as §1
# [39] = target: Fuc(a1-3)[Gal(b1-4)]GlcNAc(b1-3)GalNAc
# In short: as §1
# [40] = target: Fuc(a1-3)[Gal(b1-4)]GlcNAc(b1-6)GalNAc
# In short: as §1
# [41] = target: Fuc(a1-3)[Gal(b1-4)]GlcNAc(b1-6)[Gal(b1-3)GlcNAc(b1-3)]Gal(b1-4)Glc
# In short: as §1
# [42] = target: Fuc(a1-3)[Gal(b1-4)]GlcNAc6S
# In short: as §1
# [43] = target: Fuc(a1-3)[Gal3S(b1-4)]Glc
# In short: as §1
# [44] = target: Fuc(a1-3)[Gal3S(b1-4)]GlcNAc
# In short: as §1
# [45] = target: Fuc(a1-3)[Gal3S(b1-4)]GlcNAc6S
# In short: as §1
# [46] = target: Fuc(a1-3)[GalNAc(b1-4)]GlcNAc
# In short: as §1
# [47] = target: Fuc(a1-3)[GalNAc(b1-4)]GlcNAc6S
# In short: as §1
# Fuc(a1-4)GlcNAc = target: Fuc(a1-4)GlcNAc
# In short: as §1
# Fuc(b1-3)GlcNAc = target: Fuc(b1-3)GlcNAc
# In short: as §1
# Gal(a1-2)Gal = target: Gal(a1-2)Gal
# In short: as §1
# Gal(a1-3)Gal = target: Gal(a1-3)Gal
# In short: as §1
# Gal(a1-3)Gal(b1-3)GlcNAc = target: Gal(a1-3)Gal(b1-3)GlcNAc
# In short: as §1
# [48] = target: Gal(a1-3)Gal(b1-3)GlcNAc(b1-2)Man
# In short: as §1
# [49] = target: Gal(a1-3)Gal(b1-3)GlcNAc(b1-2)Man(a1-3)[Gal(a1-3)Gal(b1-3)GlcNAc(b1-2)Man(a1-6)]Man(b1-4)GlcNAc(b1-4)GlcNAc
# In short: as §1
# [50] = target: Gal(a1-3)Gal(b1-3)GlcNAc(b1-3)GalNAc
# In short: as §1
# [51] = target: Gal(a1-3)Gal(b1-3)GlcNAc(b1-6)GalNAc
# In short: as §1
# [52] = target: Gal(a1-3)Gal(b1-3)[Fuc(a1-4)]GlcNAc(b1-2)Man(a1-3)[Gal(a1-3)Gal(b1-3)[Fuc(a1-4)]GlcNAc(b1-2)Man(a1-6)]Man(b1-4)GlcNAc(b1-4)GlcNAc
# In short: as §1
# Gal(a1-3)Gal(b1-4)Glc = target: Gal(a1-3)Gal(b1-4)Glc
# In short: as §1
# Gal(a1-3)Gal(b1-4)GlcNAc = target: Gal(a1-3)Gal(b1-4)GlcNAc
# In short: as §1
binder,measurement,setting,value
B1,glycan array binding signal (z-score),[1],-0.45
same,glycan array binding signal (z-score),[2],-0.269
same,glycan array binding signal (z-score),[3],0.287
same,glycan array binding signal (z-score),[4],-0.156
same,glycan array binding signal (z-score),[5],-1.11
same,glycan array binding signal (z-score),[6],1.51
same,glycan array binding signal (z-score),[7],1.86
same,glycan array binding signal (z-score),[8],-1.07
same,glycan array binding signal (z-score),[9],-0.712
same,glycan array binding signal (z-score),[10],-0.393
same,glycan array binding signal (z-score),[11],-0.842
same,glycan array binding signal (z-score),[12],-0.289
same,glycan array binding signal (z-score),[13],0.327
same,glycan array binding signal (z-score),[14],-0.096
same,glycan array binding signal (z-score),[15],2.17
same,glycan array binding signal (z-score),[16],2.49
same,glycan array binding signal (z-score),[17],-1.41
same,glycan array binding signal (z-score),[18],-0.86
same,glycan array binding signal (z-score),[19],-0.409
same,glycan array binding signal (z-score),[20],-0.652
same,glycan array binding signal (z-score),[21],1.5
same,glycan array binding signal (z-score),[22],0.057
same,glycan array binding signal (z-score),[23],0.722
same,glycan array binding signal (z-score),[24],-0.452
same,glycan array binding signal (z-score),[25],-0.161
same,glycan array binding signal (z-score),[26],-0.086
same,glycan array binding signal (z-score),[27],1.42
same,glycan array binding signal (z-score),[28],1.92
same,glycan array binding signal (z-score),[29],-0.441
same,glycan array binding signal (z-score),[30],0.699
same,glycan array binding signal (z-score),Fuc(a1-3)GlcNAc,0.179
same,glycan array binding signal (z-score),[31],3.28
same,glycan array binding signal (z-score),[32],0.053
same,glycan array binding signal (z-score),[33],-0.163
same,glycan array binding signal (z-score),[34],0.222
same,glycan array binding signal (z-score),[35],1.2
same,glycan array binding signal (z-score),[36],0.313
same,glycan array binding signal (z-score),[37],0.842
same,glycan array binding signal (z-score),[38],-0.771
same,glycan array binding signal (z-score),[39],-0.202
same,glycan array binding signal (z-score),[40],1.03
same,glycan array binding signal (z-score),[41],-0.799
same,glycan array binding signal (z-score),[42],0.335
same,glycan array binding signal (z-score),[43],1.5
same,glycan array binding signal (z-score),[44],0.013
same,glycan array binding signal (z-score),[45],1.77
same,glycan array binding signal (z-score),[46],-0.249
same,glycan array binding signal (z-score),[47],0.023
same,glycan array binding signal (z-score),Fuc(a1-4)GlcNAc,-0.653
same,glycan array binding signal (z-score),Fuc(b1-3)GlcNAc,-0.751
same,glycan array binding signal (z-score),Gal(a1-2)Gal,-0.423
same,glycan array binding signal (z-score),Gal(a1-3)Gal,-0.327
same,glycan array binding signal (z-score),Gal(a1-3)Gal(b1-3)GlcNAc,-0.746
same,glycan array binding signal (z-score),[48],0.178
same,glycan array binding signal (z-score),[49],1.22
same,glycan array binding signal (z-score),[50],0.251
same,glycan array binding signal (z-score),[51],0.359
same,glycan array binding signal (z-score),[52],2.12
same,glycan array binding signal (z-score),Gal(a1-3)Gal(b1-4)Glc,-0.264
same,glycan array binding signal (z-score),Gal(a1-3)Gal(b1-4)GlcNAc,0.282

# 5 records drawn at random from those above:
binder,measurement,setting,value
B1,glycan array binding signal (z-score),[41],-0.799
same,glycan array binding signal (z-score),[36],0.313
same,glycan array binding signal (z-score),[38],-0.771
same,glycan array binding signal (z-score),[40],1.03
same,glycan array binding signal (z-score),[25],-0.161
